The target in this test is tPA. Description: ELISA: tPA coated, detection with peroxidase-conjugated anti-mouse IgG and OPD, OD at 490 nm.

No constants are given. Whether binding was seen depends on the method and setting.

B1: mouse mAb anti-FXI 34.2 (antibody, V domains shown)
VH: QVQLQQPGSELVRPGASVKLSCKASGYTFTRYWMHWVKQRHGQGLEWIGNIYPDSDSTNYDEKFRTKATLTADTSSSTAYMHLSSLTSEDSAVYYCTRMGFYAMDYWGQGTSVTVSS
VL: NIVMTQSPKSMSMSVGERVTLSCKASENVVTYVSWFQHKPEQSPKLLIYGASNRYTGVPDRFTGSGSATDFTLTISSVQAEDLADYHCGQSYSYPLTFGAGTKLELKR
notes: Mouse IgG purified from hybridoma supernatant by protein G
Consider B1, for which the binding entry is reported as “no binding”.

Values taken from patent US20190106509A1 (PROTHIX B V, published 2019).
